This passage reports binding results from paper PMC11516111.

Sequences of proteins named here, by UniProt entry; tags and fusion partners are left off. Residues count along the entry.
UniProt P35869, residues 11-848: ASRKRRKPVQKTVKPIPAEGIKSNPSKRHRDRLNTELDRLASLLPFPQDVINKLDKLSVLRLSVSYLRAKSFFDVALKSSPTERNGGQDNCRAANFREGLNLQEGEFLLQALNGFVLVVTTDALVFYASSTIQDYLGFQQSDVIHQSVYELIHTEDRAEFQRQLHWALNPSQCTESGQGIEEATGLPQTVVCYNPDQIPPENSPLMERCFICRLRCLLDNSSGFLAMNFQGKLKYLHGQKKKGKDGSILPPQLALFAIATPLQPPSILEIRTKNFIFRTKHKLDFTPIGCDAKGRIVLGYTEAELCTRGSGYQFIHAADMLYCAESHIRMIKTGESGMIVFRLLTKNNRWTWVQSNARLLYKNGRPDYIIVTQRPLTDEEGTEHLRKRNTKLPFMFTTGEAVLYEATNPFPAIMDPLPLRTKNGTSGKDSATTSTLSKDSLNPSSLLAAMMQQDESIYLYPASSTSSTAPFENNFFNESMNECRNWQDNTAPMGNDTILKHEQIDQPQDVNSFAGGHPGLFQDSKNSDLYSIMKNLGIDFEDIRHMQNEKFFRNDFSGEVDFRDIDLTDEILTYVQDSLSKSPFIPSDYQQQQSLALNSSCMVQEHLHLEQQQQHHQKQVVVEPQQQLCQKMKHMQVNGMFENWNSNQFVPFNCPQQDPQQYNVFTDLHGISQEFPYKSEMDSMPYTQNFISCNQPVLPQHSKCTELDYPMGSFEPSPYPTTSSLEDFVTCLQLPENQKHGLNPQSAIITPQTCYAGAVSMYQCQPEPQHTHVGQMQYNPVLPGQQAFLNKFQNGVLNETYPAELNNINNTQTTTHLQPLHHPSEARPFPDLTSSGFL
UniProt P27540: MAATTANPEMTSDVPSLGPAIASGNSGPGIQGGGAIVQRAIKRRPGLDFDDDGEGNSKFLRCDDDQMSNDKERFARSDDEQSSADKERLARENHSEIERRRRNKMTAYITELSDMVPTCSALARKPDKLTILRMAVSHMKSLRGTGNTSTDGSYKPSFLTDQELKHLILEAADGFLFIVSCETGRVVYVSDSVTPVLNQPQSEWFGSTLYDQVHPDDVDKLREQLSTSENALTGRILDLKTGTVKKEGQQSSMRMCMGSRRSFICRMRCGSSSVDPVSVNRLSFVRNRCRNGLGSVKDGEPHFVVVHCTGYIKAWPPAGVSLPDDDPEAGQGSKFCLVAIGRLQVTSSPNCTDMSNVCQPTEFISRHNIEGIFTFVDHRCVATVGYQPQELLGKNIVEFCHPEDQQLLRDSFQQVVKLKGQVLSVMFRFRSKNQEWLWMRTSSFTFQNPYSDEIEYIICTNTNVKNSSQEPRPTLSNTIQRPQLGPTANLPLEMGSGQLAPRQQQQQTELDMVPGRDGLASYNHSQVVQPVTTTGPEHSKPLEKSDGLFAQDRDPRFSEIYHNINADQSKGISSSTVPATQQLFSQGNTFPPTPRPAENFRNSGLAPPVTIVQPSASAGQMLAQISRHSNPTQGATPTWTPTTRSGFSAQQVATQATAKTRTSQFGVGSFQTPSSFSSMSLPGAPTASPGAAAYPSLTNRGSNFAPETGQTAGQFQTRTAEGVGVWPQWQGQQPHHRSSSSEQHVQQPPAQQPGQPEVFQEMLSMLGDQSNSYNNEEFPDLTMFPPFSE
UniProt Q9NYA1: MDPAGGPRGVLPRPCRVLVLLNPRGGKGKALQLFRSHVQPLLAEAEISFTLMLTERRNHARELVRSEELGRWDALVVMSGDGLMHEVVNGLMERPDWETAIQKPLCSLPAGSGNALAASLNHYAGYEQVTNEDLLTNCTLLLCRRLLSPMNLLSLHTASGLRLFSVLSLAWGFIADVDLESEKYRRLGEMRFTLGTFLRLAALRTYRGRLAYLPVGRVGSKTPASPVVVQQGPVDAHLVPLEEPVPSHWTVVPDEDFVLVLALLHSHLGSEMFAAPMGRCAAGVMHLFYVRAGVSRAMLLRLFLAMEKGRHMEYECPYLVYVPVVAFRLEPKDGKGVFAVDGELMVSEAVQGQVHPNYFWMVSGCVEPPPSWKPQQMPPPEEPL

No constants are given. Whether binding was seen depends on the method and setting. In cells and extracts the contact can be indirect. Some results given as binding are weak or reduced against the parent protein; the word gives no strength.

Test [1] addresses aryl hydrocarbon receptor (AHR), endogenous in HeLa cells (human (endogenous in HeLa)) (UniProt P35869). Description: co-IP; IP assays that compare SPHK2 and SPHK1 with AHR (Figure S3A,B); cells and precipitating antibody not told in the text shown.
Test [2] concerns the target T1, sphingosine kinase 2 (SPHK2), endogenous in HeLa cells (human (endogenous in HeLa)) (UniProt Q9NRA0).
T1 sequence: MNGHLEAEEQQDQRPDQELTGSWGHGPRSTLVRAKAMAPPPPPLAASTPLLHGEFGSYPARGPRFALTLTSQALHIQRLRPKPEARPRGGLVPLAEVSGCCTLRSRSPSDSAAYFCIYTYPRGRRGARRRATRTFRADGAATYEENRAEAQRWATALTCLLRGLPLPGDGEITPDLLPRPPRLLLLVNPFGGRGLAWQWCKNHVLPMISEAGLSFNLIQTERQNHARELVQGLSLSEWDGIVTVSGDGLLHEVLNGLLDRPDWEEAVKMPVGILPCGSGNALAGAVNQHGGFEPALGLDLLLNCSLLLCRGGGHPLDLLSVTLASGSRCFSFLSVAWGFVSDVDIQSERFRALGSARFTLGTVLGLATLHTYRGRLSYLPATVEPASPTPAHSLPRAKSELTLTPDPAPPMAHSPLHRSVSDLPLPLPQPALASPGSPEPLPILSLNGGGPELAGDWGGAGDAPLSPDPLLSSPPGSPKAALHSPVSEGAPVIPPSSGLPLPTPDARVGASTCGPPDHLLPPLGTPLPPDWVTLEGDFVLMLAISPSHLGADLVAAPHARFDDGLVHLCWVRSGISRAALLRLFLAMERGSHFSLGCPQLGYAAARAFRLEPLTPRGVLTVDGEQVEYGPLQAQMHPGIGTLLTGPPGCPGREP
Kind of test: co-IP; endogenous proteins; HeLa cytoplasmic and nuclear extracts, cells with or without TCDF (0.1 uM, 30 min) or ICZ; antibody to AHR, SPHK2 or ARNT on Protein G magnetic beads, 600-800 ug protein, 90 min at 4 C, washed with TBS; western blot.

Test [3] deals with aryl hydrocarbon receptor nuclear translocator (ARNT), endogenous in HeLa cells (human (endogenous in HeLa)) (UniProt P27540). The description is as above.

Consider “sphingosine kinase 1 (SPHK1) (from UniProt Q9NYA1 1-384) (enzyme)”, for which the binding result in test [1] is recorded as “binds”.

Consider “aryl hydrocarbon receptor (AHR), endogenous in HeLa cells (from UniProt P35869 11-848)”, for which the binding entry in test [2] and in test [3] was “binds” each time.

Take “aryl hydrocarbon receptor nuclear translocator (ARNT), endogenous in HeLa cells (from UniProt P27540 1-789)”: the binding entry in test [2] is “binds”.
